Test results from the supplement of paper PMC10849652.
The list shows a part of the results.

Sequences of proteins named here, by UniProt entry; tags and fusion partners are left off. A change or cut given only in a name is not applied to a line headed by its entry.
UniProt P42898: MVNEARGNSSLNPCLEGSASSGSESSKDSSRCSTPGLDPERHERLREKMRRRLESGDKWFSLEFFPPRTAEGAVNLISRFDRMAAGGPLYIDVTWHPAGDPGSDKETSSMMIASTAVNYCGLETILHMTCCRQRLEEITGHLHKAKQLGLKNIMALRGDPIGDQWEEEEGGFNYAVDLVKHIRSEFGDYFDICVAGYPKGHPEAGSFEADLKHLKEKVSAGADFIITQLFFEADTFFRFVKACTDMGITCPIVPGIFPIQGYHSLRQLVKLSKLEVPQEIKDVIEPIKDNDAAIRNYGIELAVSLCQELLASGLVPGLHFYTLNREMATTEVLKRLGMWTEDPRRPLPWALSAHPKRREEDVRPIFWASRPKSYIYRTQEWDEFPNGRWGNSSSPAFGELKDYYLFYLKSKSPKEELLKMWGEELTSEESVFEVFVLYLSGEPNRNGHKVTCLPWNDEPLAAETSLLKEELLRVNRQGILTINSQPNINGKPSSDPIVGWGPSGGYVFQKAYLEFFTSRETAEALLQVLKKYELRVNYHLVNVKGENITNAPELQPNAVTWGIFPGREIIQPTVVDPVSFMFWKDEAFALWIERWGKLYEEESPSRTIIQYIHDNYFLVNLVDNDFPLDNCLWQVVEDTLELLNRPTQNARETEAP
UniProt Q9UGC7: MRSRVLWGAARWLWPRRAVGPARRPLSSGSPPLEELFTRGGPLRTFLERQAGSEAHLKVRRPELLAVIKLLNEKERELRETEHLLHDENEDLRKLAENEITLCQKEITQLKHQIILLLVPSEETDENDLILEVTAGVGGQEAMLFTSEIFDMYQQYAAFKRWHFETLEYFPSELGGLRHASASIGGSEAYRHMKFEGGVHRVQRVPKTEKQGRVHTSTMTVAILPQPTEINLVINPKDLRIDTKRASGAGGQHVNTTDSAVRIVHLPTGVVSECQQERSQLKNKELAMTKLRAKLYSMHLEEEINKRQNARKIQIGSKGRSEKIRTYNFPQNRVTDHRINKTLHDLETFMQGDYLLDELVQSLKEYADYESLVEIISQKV
UniProt Q8NCE2: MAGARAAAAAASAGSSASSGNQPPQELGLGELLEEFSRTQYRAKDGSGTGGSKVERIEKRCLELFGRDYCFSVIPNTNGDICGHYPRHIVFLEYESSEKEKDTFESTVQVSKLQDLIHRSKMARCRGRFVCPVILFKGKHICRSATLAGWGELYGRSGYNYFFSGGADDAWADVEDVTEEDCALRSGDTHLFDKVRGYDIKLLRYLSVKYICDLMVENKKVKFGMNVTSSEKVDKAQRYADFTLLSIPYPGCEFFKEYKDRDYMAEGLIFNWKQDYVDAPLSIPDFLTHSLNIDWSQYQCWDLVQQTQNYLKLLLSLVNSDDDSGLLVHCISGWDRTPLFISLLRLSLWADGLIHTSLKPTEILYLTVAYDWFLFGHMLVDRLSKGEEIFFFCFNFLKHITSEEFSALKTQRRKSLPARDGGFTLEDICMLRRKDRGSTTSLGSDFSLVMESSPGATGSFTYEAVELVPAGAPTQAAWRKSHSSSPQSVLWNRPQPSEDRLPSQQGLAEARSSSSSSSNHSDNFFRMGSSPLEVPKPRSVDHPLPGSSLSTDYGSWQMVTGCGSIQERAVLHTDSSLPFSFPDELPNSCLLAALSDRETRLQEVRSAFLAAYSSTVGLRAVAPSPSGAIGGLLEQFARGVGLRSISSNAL
UniProt Q765P7: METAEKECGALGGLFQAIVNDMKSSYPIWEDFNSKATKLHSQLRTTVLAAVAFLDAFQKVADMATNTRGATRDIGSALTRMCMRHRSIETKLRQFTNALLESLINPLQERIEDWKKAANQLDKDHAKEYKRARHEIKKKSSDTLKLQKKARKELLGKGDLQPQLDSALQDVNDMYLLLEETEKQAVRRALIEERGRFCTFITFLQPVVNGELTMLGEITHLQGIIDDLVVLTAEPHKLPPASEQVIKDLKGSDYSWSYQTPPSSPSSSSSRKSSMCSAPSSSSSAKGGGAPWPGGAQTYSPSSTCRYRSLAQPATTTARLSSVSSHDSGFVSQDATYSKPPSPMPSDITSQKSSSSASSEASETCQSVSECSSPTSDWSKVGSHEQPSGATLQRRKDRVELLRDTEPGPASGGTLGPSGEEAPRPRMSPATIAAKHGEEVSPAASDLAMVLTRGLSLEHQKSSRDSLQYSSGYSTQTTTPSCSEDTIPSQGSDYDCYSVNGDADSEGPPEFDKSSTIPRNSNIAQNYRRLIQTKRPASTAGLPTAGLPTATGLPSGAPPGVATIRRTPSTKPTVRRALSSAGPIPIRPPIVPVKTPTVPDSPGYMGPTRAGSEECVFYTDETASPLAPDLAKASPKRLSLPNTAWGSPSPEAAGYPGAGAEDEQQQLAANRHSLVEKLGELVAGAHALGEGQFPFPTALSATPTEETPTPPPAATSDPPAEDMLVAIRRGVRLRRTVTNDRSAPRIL
UniProt Q2M296: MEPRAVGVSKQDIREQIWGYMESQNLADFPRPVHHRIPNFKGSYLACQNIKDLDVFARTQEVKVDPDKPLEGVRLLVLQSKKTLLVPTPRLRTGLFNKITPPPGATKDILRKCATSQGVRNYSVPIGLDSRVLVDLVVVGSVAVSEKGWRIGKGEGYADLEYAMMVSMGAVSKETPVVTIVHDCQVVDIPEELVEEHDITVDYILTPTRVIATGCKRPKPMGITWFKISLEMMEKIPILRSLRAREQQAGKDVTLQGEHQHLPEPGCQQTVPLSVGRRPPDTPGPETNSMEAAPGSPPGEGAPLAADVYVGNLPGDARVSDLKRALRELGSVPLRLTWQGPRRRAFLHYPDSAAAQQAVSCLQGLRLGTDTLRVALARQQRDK
UniProt Q9H019: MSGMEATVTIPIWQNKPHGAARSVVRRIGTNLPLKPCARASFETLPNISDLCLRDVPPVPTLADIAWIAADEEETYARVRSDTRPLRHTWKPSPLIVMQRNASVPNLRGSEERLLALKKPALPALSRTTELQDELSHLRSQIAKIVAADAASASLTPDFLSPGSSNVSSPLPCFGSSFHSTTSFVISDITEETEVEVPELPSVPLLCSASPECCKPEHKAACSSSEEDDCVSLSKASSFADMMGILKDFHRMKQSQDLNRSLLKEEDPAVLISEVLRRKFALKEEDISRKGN

Columns and labels:
Assay in all cases: log2 fold change, soluble protein after heating vs DMSO (PISA); higher = thermal stabilisation; K562 lysate, 10 uM; active = over 0.2 and 3.5 SD of the protein, either way, in both replicates (recomputed)
[1] = compound: CN1CC[C@H](c2c(O)cc(O)c3c(=O)cc(-c4ccccc4Cl)oc23)[C@H](O)C1 [alvocidib]
In short: (§1)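 A 30 min treatment with 10 μM compound was applied to crude K562 extract at 1 mg/mL protein in PBS pH 7.4 with 1 mM MgCl2. Heating for 3 min spanned 48°C-58°C, after which aliquots were pooled, adjusted to 0.5% NP-40 at 4°C and spun at 21,000xg for 90 min. TMTpro 16plex LC-MS/MS of the supernatant, with channel sums equalised, gave values recorded as log-two fold change in thermal stability against solvent controls, from duplicates.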

[2] = compound: CN1CCc2c(c3ccccc3n2Cc2ccc(C(=O)NO)cc2)C1 [Tubastatin A]
In short: as §1

[3] = compound: CNC(=O)C1=CC=CC=C1NC2=NC(=NC=C2Cl)NC3=C(C=C(C=C3)N4CCOCC4)OC
In short: as §1

[4] = compound: CNC(=O)c1ccc(Nc2ncc(C(F)(F)F)c(NCc3nccnc3N(C)S(C)(=O)=O)n2)cc1 [defactinib]
In short: as §1

[5] = compound: CNc1nc(-c2ccc3c(N)n[nH]c3c2)cc(N2C[C@@H](C(=O)NC3CCCCC3)CC[C@H]2C)n1
In short: as §1

[6] = compound: COC(=O)N[C@@H](C)CNc1nccc(-c2cn(C(C)C)nc2-c2cc(Cl)cc(NS(C)(=O)=O)c2F)n1 [encorafenib]
In short: as §1

[7] = compound: COC(=O)[C@H](CCSC)NC(=O)C1=C(C=C(C=C1)NC[C@H](CS)N)C2=CC=CC=C2
In short: as §1

[8] = compound: COc1cc(Nc2ncc3c(n2)-c2ccc(Cl)cc2C(c2c(F)cccc2OC)=NC3)ccc1C(=O)O [alisertib]
In short: as §1

[9] = compound: COc1cc2nc(-c3cc(F)ccc3O)nc(N[C@@H]3CNC[C@H]3C(C)(C)O)c2cc1OC
In short: as §1

[10] = compound: COc1cc2ncnc(Nc3ccc(F)c(Cl)c3)c2cc1OCCCN1CCOCC1 [gefitinib]
In short: as §1

[11] = compound: CS(=O)(=O)CCNCc1ccc(-c2ccc3ncnc(Nc4ccc(OCc5cccc(F)c5)c(Cl)c4)c3c2)o1 [lapatinib]
In short: as §1

[12] = compound: CS(=O)(=O)N1CCN(Cc2cc3nc(-c4cccc5[nH]ncc45)nc(N4CCOCC4)c3s2)CC1 [pictilisib]
In short: as §1

[13] = compound: C[C@@H](Oc1cc(-c2cnn(C3CCNCC3)c2)cnc1N)c1c(Cl)ccc(F)c1Cl [crizotinib]
In short: as §1

[14] = compound: C[C@H](C1=CC=C(C=C1)C(=O)NC2=C3C=CNC3=NC=C2)N
In short: as §1

[15] = compound: C[C@H](Nc1ncnc2nc[nH]c12)c1cc2cccc(Cl)c2c(=O)n1-c1ccccc1 [duvelisib]
In short: as §1

[16] = compound: Cc1cc(Nc2cc(CN3CCOCC3)c3nc(C)c(Cc4ccc(Cl)cc4F)n3n2)n[nH]1 [gandotinib]
In short: as §1

[17] = compound: Cc1cc(Nc2cc(N3CCN(C)CC3)nc(Sc3ccc(NC(=O)C4CC4)cc3)n2)n[nH]1 [tozasertib]
In short: as §1

[18] = compound: Cc1ccc(-n2nc(C(C)(C)C)cc2NC(=O)Nc2ccc(OCCN3CCOCC3)c3ccccc23)cc1 [doramapimod]
In short: as §1

[19] = compound: Cc1ccc(NC(=O)c2ccc(CN3CC[C@H](N(C)C)C3)c(C(F)(F)F)c2)cc1Nc1nccc(-c2cncnc2)n1 [bafetinib]
In short: as §1

[20] = compound: Cc1cccc(CC(=O)N2CCc3c2ccc(-c2cn(C)c4ncnc(N)c24)c3F)n1
In short: as §1

| Target | log2 fold change [1] | log2 fold change [2] | log2 fold change [3] | log2 fold change [4] | log2 fold change [5] | log2 fold change [6] | log2 fold change [7] | log2 fold change [8] | log2 fold change [9] | log2 fold change [10] | log2 fold change [11] | log2 fold change [12] | log2 fold change [13] | log2 fold change [14] | log2 fold change [15] | log2 fold change [16] | log2 fold change [17] | log2 fold change [18] | log2 fold change [19] | log2 fold change [20] |
| --- | --- | --- | --- | --- | --- | --- | --- | --- | --- | --- | --- | --- | --- | --- | --- | --- | --- | --- | --- | --- |
| MTHFR isoform 2 (UniProt P42898) | inactive: -0.008 | inactive: 0.045 | inactive: -0.001 | inactive: -0.028 | inactive: -0.001 | inactive: -0.02 | inactive: 0.087 | inactive: 0.011 | inactive: 0 | inactive: -0.002 | inactive: -0.037 | inactive: 0 | inactive: -0.005 | inactive: -0.03 | inactive: 0.029 | inactive: -0.025 | inactive: 0.005 | inactive: 0.018 | inactive: -0.064 | inactive: 0.059 |
| MRPS25 (UniProt P82663) | inactive: 0.06 | inactive: 0.012 | inactive: 0.015 | inactive: 0.072 | inactive: 0.047 | inactive: 0.008 | inactive: 0.077 | inactive: 0.028 | inactive: -0.075 | inactive: 0.116 | inactive: -0.01 | inactive: -0.006 | inactive: -0.053 | inactive: 0.101 | inactive: 0.031 | inactive: 0.022 | inactive: 0.02 | inactive: 0.014 | inactive: 0.072 | inactive: -0.055 |
| MTRF1L (UniProt Q9UGC7) | inactive: -0.033 | inactive: 0.031 | inactive: 0.022 | inactive: -0.128 | inactive: 0.017 | inactive: -0.006 | inactive: 0.045 | inactive: 0.001 | inactive: 0.066 | inactive: 0.006 | inactive: 0.026 | inactive: -0.012 | inactive: -0.013 | inactive: -0.052 | inactive: -0.037 | inactive: 0.014 | inactive: -0.054 | inactive: 0.043 | inactive: -0.016 | inactive: 0.069 |
| MRPS7 (UniProt Q9Y2R9) | inactive: -0.022 | inactive: -0.021 | inactive: 0.021 | inactive: 0.003 | inactive: 0.021 | inactive: -0.007 | inactive: -0.041 | inactive: -0.017 | inactive: 0.029 | inactive: -0.01 | inactive: 0.04 | inactive: -0.07 | inactive: -0.02 | inactive: 0.046 | inactive: 0.021 | inactive: -0.046 | inactive: 0.02 | inactive: 0.06 | inactive: -0.045 | inactive: 0.011 |
| MTMR14 (UniProt Q8NCE2) | inactive: -0.013 | inactive: -0.093 | inactive: 0.02 | inactive: 0.023 | inactive: -0.013 | inactive: 0.066 | inactive: -0.151 | inactive: -0.017 | inactive: -0.004 | inactive: -0.034 | inactive: 0.013 | inactive: -0.044 | inactive: -0.029 | inactive: -0.026 | inactive: 0.017 | inactive: 0.037 | inactive: 0.034 | inactive: 0.024 | inactive: -0.12 | inactive: 0.081 |
| MTSS2 (UniProt Q765P7) | inactive: -0.005 | inactive: 0.058 | inactive: 0.073 | inactive: 0.028 | inactive: -0.018 | inactive: -0.022 | inactive: 0.033 | inactive: 0.033 | inactive: 0 | inactive: 0.025 | inactive: -0.02 | inactive: 0.014 | inactive: 0.024 | inactive: -0.089 | inactive: -0.015 | inactive: 0.057 | inactive: -0.088 | inactive: -0.04 | inactive: -0.08 | inactive: 0.07 |
| MTOR (UniProt P42345) | inactive: -0.054 | inactive: -0.118 | inactive: -0.038 | inactive: 0.01 | inactive: -0.025 | inactive: 0.016 | inactive: 0.014 | inactive: 0.006 | inactive: 0 | inactive: -0.039 | inactive: -0.008 | inactive: -0.016 | inactive: -0.068 | inactive: -0.042 | inactive: 0.021 | inactive: -0.079 | inactive: 0.018 | inactive: 0.055 | inactive: -0.015 | inactive: 0.053 |
| MRPL51 (UniProt Q4U2R6) | inactive: -0.039 | inactive: -0.018 | inactive: 0.016 | inactive: 0.198 | inactive: -0.002 | inactive: 0.088 | inactive: -0.208 | inactive: -0.005 | inactive: -0.005 | inactive: -0.044 | inactive: -0.051 | inactive: -0.016 | inactive: 0.056 | inactive: -0.201 | inactive: -0.004 | inactive: 0.058 | inactive: 0.083 | inactive: -0.247 | inactive: 0.02 | inactive: 0.091 |
| MRPS23 (UniProt Q9Y3D9) | inactive: 0.071 | inactive: -0.043 | inactive: -0.005 | inactive: -0.034 | inactive: -0.036 | inactive: -0.016 | inactive: 0.019 | inactive: -0.011 | inactive: -0.037 | inactive: -0.01 | inactive: 0.005 | inactive: -0.051 | inactive: -0.003 | inactive: 0.093 | inactive: -0.028 | inactive: -0.113 | inactive: 0.015 | inactive: 0.044 | inactive: -0.059 | inactive: -0.112 |
| MRPL35 (UniProt Q9NZE8) | inactive: 0.057 | inactive: -0.226 | inactive: 0.01 | inactive: 0.014 | inactive: 0.033 | – | – | inactive: 0.01 | inactive: -0.072 | inactive: 0.009 | inactive: 0.051 | inactive: 0.001 | inactive: 0.01 | inactive: -0.207 | inactive: -0.054 | inactive: 0 | – | inactive: -0.023 | inactive: -0.02 | inactive: 0.039 |
| MRPL24 (UniProt Q96A35) | inactive: 0.033 | inactive: 0.01 | inactive: 0.01 | inactive: 0.025 | inactive: 0.075 | inactive: 0.018 | inactive: 0.007 | inactive: 0.014 | inactive: 0.014 | inactive: -0.052 | inactive: 0.037 | – | inactive: -0.114 | inactive: 0.037 | inactive: 0.012 | inactive: -0.071 | inactive: 0.07 | inactive: 0.037 | – | inactive: -0.034 |
| MRPL42 (UniProt Q9Y6G3) | inactive: -0.044 | inactive: 0.062 | inactive: 0.23 | inactive: -0.111 | inactive: 0.057 | inactive: 0.102 | inactive: 0.248 | inactive: -0.007 | inactive: -0.028 | inactive: -0.008 | inactive: -0.001 | inactive: 0.004 | inactive: 0.005 | inactive: 0.011 | inactive: 0.006 | inactive: 0.014 | inactive: -0.064 | inactive: 0.027 | inactive: -0.042 | inactive: 0.006 |
| MRPL47 (UniProt Q9HD33) | inactive: 0.018 | inactive: -0.057 | inactive: 0.038 | inactive: 0.026 | inactive: 0.007 | inactive: 0.067 | inactive: -0.066 | inactive: -0.06 | inactive: -0.075 | inactive: 0.269 | inactive: -0.027 | inactive: -0.051 | inactive: 0.023 | inactive: -0.001 | inactive: 0.017 | inactive: -0.057 | inactive: -0.073 | inactive: -0.041 | inactive: 0.112 | inactive: 0.019 |
| MTHFSD isoform 3 (UniProt Q2M296) | inactive: -0.075 | inactive: 0.027 | inactive: -0.011 | inactive: 0.05 | inactive: 0.024 | – | – | inactive: 0.004 | inactive: 0.013 | inactive: -0.091 | inactive: 0.014 | inactive: 0.032 | inactive: 0.014 | inactive: -0.04 | inactive: -0.013 | inactive: 0.091 | – | inactive: 0.005 | inactive: -0.016 | inactive: -0.119 |
| MTFR1L (UniProt Q9H019) | inactive: -0.046 | inactive: -0.237 | inactive: 0.081 | inactive: -0.05 | inactive: 0.032 | inactive: -0.021 | inactive: 0.009 | inactive: 0.022 | inactive: -0.068 | inactive: -0.039 | inactive: 0.072 | inactive: 0.021 | inactive: -0.026 | inactive: -0.026 | inactive: -0.016 | inactive: 0.023 | inactive: -0.045 | inactive: 0.023 | inactive: -0.077 | inactive: 0.017 |
| MRPL27 (UniProt Q9P0M9) | inactive: 0.082 | inactive: -0.017 | inactive: 0.016 | – | inactive: -0.028 | inactive: -0.047 | inactive: 0.008 | inactive: -0.019 | inactive: 0 | inactive: 0.022 | inactive: 0.02 | inactive: 0.017 | inactive: -0.046 | active: 0.658 | inactive: 0.02 | inactive: -0.249 | inactive: 0.029 | inactive: 0.011 | inactive: 0.012 | inactive: -0.076 |

Quoted from the listing:
log2 fold change [8], MTFR1L (UniProt Q9H019) reads inactive: 0.022
log2 fold change [15], MRPL51 (UniProt Q4U2R6) reads inactive: -0.004
